# Assay results from paper PMC11753365.
# Amino acid sequences for entries named in this document (tags omitted). A change or cut given only in a name is not applied to a line headed by its entry.
# UniProt Q9D112: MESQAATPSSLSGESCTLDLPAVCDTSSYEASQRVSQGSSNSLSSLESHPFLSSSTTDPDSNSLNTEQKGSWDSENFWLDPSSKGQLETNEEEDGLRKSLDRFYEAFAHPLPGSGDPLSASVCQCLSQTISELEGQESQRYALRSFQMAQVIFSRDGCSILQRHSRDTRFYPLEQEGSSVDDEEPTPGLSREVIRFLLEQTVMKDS
# These are yes or no findings as the source states them, for the method shown. Binding seen in cells or lysates may run through a third protein. For part of these data: Binding can be weak; no strength is given.
# B1: Stn1 (protein, UniProt Q8K2X3 1-378)
# chain: MPQPCLLMECESSPREEEIPPLFWGLDPVFLAFAKLYIKDILEMKESQQVPGTYFYNGHPIRRVDIMGAVISVKERETFYSYGVDDATGVINCVCWKKLSNAESSSDPAILSTARELSMTSQLKKLQETIEQKTRIGIGDIIRVRGSVRMFREEREICANIYYKVDDPVWNMQIARMLELPKLYQKVYDQPFRNPALQEEEALNNKDNLDLAGLTSLLSEKIKEFLQEKKMQSFYQQELETVESLQSLASRPVTHSTGSDQVELKDSGTSGVAQRVFKNALQLLQEKGLVFQRDSGSDKLYYVTTKDKDLQQKIYHIIKEDCQKPNHMEKGCHLLHILNCVHLNLRWDLSKAVLQRVLELLEDQSDIVSTADHYYAAF
# Experiments:
# [1] = target: SHLD1^∆exon1 protein deleted of its first 59 amino acids (UniProt Q9D112); assay: pull-down; smaller-scale MagStrep-XT capture of tagged shieldin subunits from CH12-F3 lysates, beads boiled in Laemmli buffer, immunoblot (anti-STN1); cells mock-treated or irradiated; also cells pre-treated with the ATR inhibitor AZD6738 before irradiation
# TwinStrep–HA–SHLD3 [2] = assay: as above
# TwinStrep–HA–SHLD3 [3] = assay: condition: only cells pre-treated with the ATM inhibitor KU55933 before irradiation; pull-down; as a2, cells pre-treated for 1 h with the ATM inhibitor KU55933 before irradiation
binder,measurement,setting,value
B1,binding,[1],binds
same,binding,TwinStrep–HA–SHLD3 [2],binds
same,binding,TwinStrep–HA–SHLD3 [3],no binding
